This test has as its target tumor suppressor p53-binding protein 1 (53BP1), endogenous (human (endogenous in U2OS)) (UniProt Q12888). The test is described as follows: co-IP; endogenous immunoprecipitation of 53BP1 or MCAK from extracts of unsynchronized or NOC-synchronized mitotic cells, immunoblotting.

Sequences of proteins named here, by UniProt entry; tags and fusion partners are left off.
UniProt Q12888: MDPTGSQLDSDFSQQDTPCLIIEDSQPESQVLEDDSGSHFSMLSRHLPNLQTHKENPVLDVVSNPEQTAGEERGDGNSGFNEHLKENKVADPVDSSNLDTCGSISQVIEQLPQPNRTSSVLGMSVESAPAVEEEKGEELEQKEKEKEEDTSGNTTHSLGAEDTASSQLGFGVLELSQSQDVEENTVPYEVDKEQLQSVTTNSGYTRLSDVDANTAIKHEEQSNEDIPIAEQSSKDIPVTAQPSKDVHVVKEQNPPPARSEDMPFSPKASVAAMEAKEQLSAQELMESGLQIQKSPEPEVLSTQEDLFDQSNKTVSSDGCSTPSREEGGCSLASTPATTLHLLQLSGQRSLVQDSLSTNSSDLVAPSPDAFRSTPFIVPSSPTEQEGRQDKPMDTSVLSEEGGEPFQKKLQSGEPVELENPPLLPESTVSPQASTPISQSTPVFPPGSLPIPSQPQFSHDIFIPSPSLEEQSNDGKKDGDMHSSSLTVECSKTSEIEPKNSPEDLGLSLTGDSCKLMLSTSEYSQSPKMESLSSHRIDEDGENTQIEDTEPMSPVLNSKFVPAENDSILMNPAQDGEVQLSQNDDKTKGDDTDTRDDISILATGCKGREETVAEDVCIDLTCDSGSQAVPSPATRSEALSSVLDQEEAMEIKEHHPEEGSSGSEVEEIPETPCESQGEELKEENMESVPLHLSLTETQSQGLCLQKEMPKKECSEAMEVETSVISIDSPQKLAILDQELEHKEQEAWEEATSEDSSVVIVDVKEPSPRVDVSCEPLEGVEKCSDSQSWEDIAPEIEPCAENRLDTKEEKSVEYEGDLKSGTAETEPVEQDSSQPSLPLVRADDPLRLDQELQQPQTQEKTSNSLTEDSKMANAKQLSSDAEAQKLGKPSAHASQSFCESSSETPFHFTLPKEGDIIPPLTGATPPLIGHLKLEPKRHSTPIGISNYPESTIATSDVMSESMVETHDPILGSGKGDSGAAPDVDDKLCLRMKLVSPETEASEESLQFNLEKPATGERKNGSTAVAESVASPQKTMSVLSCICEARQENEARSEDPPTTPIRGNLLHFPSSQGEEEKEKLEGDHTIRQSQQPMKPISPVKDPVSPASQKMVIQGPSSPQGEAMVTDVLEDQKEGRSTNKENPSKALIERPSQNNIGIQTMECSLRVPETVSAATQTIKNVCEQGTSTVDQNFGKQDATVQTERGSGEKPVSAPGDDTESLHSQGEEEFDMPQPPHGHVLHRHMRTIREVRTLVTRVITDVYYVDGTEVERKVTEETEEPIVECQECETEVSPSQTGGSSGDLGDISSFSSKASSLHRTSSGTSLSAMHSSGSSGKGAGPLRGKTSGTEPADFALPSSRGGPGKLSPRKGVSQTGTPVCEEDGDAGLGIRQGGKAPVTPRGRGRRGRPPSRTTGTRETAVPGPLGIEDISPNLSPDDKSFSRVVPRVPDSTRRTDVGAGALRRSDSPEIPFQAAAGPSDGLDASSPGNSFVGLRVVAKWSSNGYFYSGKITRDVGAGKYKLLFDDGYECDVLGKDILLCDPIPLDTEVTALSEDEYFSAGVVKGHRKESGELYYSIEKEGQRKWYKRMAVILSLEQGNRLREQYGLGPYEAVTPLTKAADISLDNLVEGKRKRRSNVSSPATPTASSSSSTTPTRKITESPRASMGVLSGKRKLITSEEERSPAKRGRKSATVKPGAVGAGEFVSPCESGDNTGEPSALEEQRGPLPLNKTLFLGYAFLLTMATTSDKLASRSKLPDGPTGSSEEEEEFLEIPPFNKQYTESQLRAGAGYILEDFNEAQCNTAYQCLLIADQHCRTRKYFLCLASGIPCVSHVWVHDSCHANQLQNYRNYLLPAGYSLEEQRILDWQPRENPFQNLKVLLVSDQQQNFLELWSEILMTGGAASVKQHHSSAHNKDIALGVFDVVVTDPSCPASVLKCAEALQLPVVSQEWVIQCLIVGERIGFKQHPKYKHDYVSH

These are yes or no findings as the source states them, for the method shown. Binding seen in cells or lysates may run through a third protein. Some binding calls cover weakened binding; strength is not graded here.

B1: mitotic centromere-associated kinesin (MCAK), endogenous (protein, UniProt Q99661 1-725)
chain: MAMDSSLQARLFPGLAIKIQRSNGLIHSANVRTVNLEKSCVSVEWAEGGATKGKEIDFDDVAAINPELLQLLPLHPKDNLPLQENVTIQKQKRRSVNSKIPAPKESLRSRSTRMSTVSELRITAQENDMEVELPAAANSRKQFSVPPAPTRPSCPAVAEIPLRMVSEEMEEQVHSIRGSSSANPVNSVRRKSCLVKEVEKMKNKREEKKAQNSEMRMKRAQEYDSSFPNWEFARMIKEFRATLECHPLTMTDPIEEHRICVCVRKRPLNKQELAKKEIDVISIPSKCLLLVHEPKLKVDLTKYLENQAFCFDFAFDETASNEVVYRFTARPLVQTIFEGGKATCFAYGQTGSGKTHTMGGDLSGKAQNASKGIYAMASRDVFLLKNQPCYRKLGLEVYVTFFEIYNGKLFDLLNKKAKLRVLEDGKQQVQVVGLQEHLVNSADDVIKMIDMGSACRTSGQTFANSNSSRSHACFQIILRAKGRMHGKFSLVDLAGNERGADTSSADRQTRMEGAEINKSLLALKECIRALGQNKAHTPFRESKLTQVLRDSFIGENSRTCMIATISPGISSCEYTLNTLRYADRVKELSPHSGPSGEQLIQMETEEMEACSNGALIPGNLSKEEEELSSQMSSFNEAMTQIRELEEKAMEELKEIIQQGPDWLELSEMTEQPDYDLETFVNKAESALAQQAKHFSALRDVIKALRLAMQLEEQASRQISSKKRPQ
Take B1: the binding entry was “binds”.

Values taken from paper PMC5564716.
